Laboratory results from article PMC7265330.
Results are given in words; binding and its absence hold for the method and conditions named. In cells and extracts the contact can be indirect. Here binding means that the protein was enriched with, or labelled near, the bait; the list need not be complete. No binding means not detected with the bait.

Amino acid sequences for entries named in this document (tags omitted).
UniProt P14635: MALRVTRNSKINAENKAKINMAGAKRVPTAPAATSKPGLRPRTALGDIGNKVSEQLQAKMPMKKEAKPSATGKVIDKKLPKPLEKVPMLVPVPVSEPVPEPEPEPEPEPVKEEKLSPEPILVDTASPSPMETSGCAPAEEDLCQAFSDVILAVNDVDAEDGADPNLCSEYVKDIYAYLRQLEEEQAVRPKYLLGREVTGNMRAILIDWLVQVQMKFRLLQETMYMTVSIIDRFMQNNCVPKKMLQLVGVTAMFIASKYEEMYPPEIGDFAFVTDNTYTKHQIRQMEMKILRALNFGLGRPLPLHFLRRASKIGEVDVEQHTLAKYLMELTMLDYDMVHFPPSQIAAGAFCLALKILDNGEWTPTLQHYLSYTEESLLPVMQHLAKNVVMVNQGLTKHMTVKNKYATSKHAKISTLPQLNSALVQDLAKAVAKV

Molecular target: cyclin B1 (RPE cyclin B1-Venus+/−:Ruby-MAD2+/− cells) (human (endogenous in RPE1)) (UniProt P14635)
Assay: affinity purification with mass spectrometry; CCNB1 immunoprecipitates from RPE cells (WT, MAD1 E53/56K clones D2 and B12) against IgG control; on-bead trypsin digest, TMT labelling, quantitative LC-MS/MS; three biologically independent experiments

Binder	binding
MAD1 (parental RPE cells) (protein, UniProt Q9Y6D9 1-718) MEDLGENTMVLSTLRSLNNFISQRVEGGSGLDISTSAPGSLQMQYQQSMQLEERAEQIRSKSHLIQVEREKMQMELSHKRARVELERAASTSARNYEREVDRNQELLTRIRQLQEREAGAEEKMQEQLERNRQCQQNLDAASKRLREKEDSLAQAGETINALKGRISELQWSVMDQEMRVKRLESEKQELQEQLDLQHKKCQEANQKIQELQASQEARADHEQQIKDLEQKLSLQEQDAAIVKNMKSELVRLPRLERELKQLREESAHLREMRETNGLLQEELEGLQRKLGRQEKMQETLVGLELENERLLAKLQSWERLDQTMGLSIRTPEDLSRFVVELQQRELALKDKNSAVTSSARGLEKARQQLQEELRQVSGQLLEERKKRETHEALARRLQKRVLLLTKERDGMRAILGSYDSELTPAEYSPQLTRRMREAEDMVQKVHSHSAEMEAQLSQALEELGGQKQRADMLEMELKMLKSQSSSAEQSFLFSREEADTLRLKVEELEGERSRLEEEKRMLEAQLERRALQGDYDQSRTKVLHMSLNPTSVARQRLREDHSQLQAECERLRGLLRAMERGGTVPADLEAAAASLPSSKEVAELKKQVESAELKNQRLKEVFQTKIQEFRKACYTLTGYQIDITTENQYRLTSLYAEHPGDCLIFKATSPSGSKMQLLETEFSHTVGELIEVHLRRQDSIPAFLSSLTLELFSRQTVA	binds
MAD1 E53K/E56K (RPE clones 7D2 and 8B12) (protein, UniProt Q9Y6D9 1-718) MEDLGENTMVLSTLRSLNNFISQRVEGGSGLDISTSAPGSLQMQYQQSMQLEKRAKQIRSKSHLIQVEREKMQMELSHKRARVELERAASTSARNYEREVDRNQELLTRIRQLQEREAGAEEKMQEQLERNRQCQQNLDAASKRLREKEDSLAQAGETINALKGRISELQWSVMDQEMRVKRLESEKQELQEQLDLQHKKCQEANQKIQELQASQEARADHEQQIKDLEQKLSLQEQDAAIVKNMKSELVRLPRLERELKQLREESAHLREMRETNGLLQEELEGLQRKLGRQEKMQETLVGLELENERLLAKLQSWERLDQTMGLSIRTPEDLSRFVVELQQRELALKDKNSAVTSSARGLEKARQQLQEELRQVSGQLLEERKKRETHEALARRLQKRVLLLTKERDGMRAILGSYDSELTPAEYSPQLTRRMREAEDMVQKVHSHSAEMEAQLSQALEELGGQKQRADMLEMELKMLKSQSSSAEQSFLFSREEADTLRLKVEELEGERSRLEEEKRMLEAQLERRALQGDYDQSRTKVLHMSLNPTSVARQRLREDHSQLQAECERLRGLLRAMERGGTVPADLEAAAASLPSSKEVAELKKQVESAELKNQRLKEVFQTKIQEFRKACYTLTGYQIDITTENQYRLTSLYAEHPGDCLIFKATSPSGSKMQLLETEFSHTVGELIEVHLRRQDSIPAFLSSLTLELFSRQTVA	no binding
